{"source": "PubChem BioAssay AID1259254 (NCATS, 2017)", "purpose": "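Gene knock-downs that lead to re-replication, shown by excess G2 DNA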 (primary screen)", "cell system": "human HCT116 colorectal cancer cells", "reagents": "single siRNA against human genes", "time to read-out": "3 days", "read-out": "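Imaged Hoechst DNA stain sorts each cell into a cycle phase by DNA amount; per plate, G2 fraction set to 0% for non-targeting and 100% for GMNN siRNA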", "direction": "G2 robust z-score and G2 cells, % of GMNN control: higher = more G2 cells, more excess DNA replication", "rule for the call": "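Active siRNAs have a G2 robust z of 5 or more median absolute deviations over the median, which in these data means about 38% or higher of GMNN control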", "note": "In all, the deposit lists about 59,000 reagents; this is a part drawn at random. About 1,550 of them (2.6%) were called active. 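G2 share is only a proxy for re-replication; each gene was hit by three separate siRNAs, and active genes were retested.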 Unmarked entries are inactive. The numbers tell different reagents against one gene apart. Not all columns of the deposit are shown. Not given: the amount of reagent."}
{"target gene": "SMAD5", "reagent no.": 1, "G2 robust z-score": -0.777, "G2 cells, % of GMNN control": -2.5}
{"target gene": "SMAD5", "reagent no.": 2, "G2 robust z-score": 0.158, "G2 cells, % of GMNN control": 4.08}
{"target gene": "SMAD5", "reagent no.": 3, "G2 robust z-score": 0.16, "G2 cells, % of GMNN control": 4.09}
{"target gene": "ZNF439", "reagent no.": 1, "G2 robust z-score": -0.174, "G2 cells, % of GMNN control": 1.74}
{"target gene": "ZNF439", "reagent no.": 2, "G2 robust z-score": 1.44, "G2 cells, % of GMNN control": 13.1}
{"target gene": "ZNF439", "reagent no.": 3, "G2 robust z-score": -0.34, "G2 cells, % of GMNN control": 0.579}
{"target gene": "NTN3", "reagent no.": 1, "G2 robust z-score": -0.492, "G2 cells, % of GMNN control": -0.495}
{"target gene": "NTN3", "reagent no.": 2, "G2 robust z-score": -0.534, "G2 cells, % of GMNN control": -0.793}
{"target gene": "NTN3", "reagent no.": 3, "G2 robust z-score": -0.0479, "G2 cells, % of GMNN control": 2.63}
{"target gene": "DND1", "reagent no.": 1, "G2 robust z-score": -0.606, "G2 cells, % of GMNN control": -1.3}
{"target gene": "DND1", "reagent no.": 2, "G2 robust z-score": 1.36, "G2 cells, % of GMNN control": 12.6}
{"target gene": "DND1", "reagent no.": 3, "G2 robust z-score": -0.447, "G2 cells, % of GMNN control": -0.177}
